Assay [1] has as its target FLAG-eIF3D (UniProt O15371). The assay is described as follows: proximity ligation.
Assay [2] addresses FLAG-eIF3D (UniProt O15371). The assay is described as follows: co-IP.
In assay [3] the target is T1, GYF motif mutant v5-GIGYF1 (G502A, Y503A, F504A) (human) (UniProt O75420).
T1 sequence: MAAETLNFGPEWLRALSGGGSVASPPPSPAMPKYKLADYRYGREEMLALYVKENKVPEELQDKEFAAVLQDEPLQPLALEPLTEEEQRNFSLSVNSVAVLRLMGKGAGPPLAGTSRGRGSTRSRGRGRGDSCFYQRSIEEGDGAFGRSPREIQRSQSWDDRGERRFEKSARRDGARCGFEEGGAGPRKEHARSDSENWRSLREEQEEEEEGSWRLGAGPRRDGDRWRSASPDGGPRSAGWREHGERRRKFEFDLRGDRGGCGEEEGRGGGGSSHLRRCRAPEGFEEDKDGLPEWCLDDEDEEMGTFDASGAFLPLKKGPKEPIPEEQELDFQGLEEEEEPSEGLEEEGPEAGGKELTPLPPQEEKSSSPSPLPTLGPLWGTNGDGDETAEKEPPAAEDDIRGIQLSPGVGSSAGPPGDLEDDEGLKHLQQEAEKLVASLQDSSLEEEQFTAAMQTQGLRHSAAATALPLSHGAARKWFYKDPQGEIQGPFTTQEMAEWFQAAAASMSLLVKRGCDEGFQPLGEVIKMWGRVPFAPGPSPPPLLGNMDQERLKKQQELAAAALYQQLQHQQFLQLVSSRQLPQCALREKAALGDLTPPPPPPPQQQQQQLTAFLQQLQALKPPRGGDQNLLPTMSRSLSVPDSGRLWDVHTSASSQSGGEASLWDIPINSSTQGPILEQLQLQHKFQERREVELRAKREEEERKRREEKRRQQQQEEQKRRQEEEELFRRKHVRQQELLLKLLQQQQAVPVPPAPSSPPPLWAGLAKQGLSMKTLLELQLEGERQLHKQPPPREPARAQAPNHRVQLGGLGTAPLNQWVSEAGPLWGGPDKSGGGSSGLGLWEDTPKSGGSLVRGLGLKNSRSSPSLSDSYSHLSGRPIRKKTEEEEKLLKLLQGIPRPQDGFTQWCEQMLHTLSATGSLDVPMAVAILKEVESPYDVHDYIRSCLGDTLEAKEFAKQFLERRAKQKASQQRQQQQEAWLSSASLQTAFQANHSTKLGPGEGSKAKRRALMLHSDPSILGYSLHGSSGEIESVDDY
As to the kind of experiment: co-IP.

The chains behind the UniProt entries cited, without tags or fusion partners.
UniProt O15371: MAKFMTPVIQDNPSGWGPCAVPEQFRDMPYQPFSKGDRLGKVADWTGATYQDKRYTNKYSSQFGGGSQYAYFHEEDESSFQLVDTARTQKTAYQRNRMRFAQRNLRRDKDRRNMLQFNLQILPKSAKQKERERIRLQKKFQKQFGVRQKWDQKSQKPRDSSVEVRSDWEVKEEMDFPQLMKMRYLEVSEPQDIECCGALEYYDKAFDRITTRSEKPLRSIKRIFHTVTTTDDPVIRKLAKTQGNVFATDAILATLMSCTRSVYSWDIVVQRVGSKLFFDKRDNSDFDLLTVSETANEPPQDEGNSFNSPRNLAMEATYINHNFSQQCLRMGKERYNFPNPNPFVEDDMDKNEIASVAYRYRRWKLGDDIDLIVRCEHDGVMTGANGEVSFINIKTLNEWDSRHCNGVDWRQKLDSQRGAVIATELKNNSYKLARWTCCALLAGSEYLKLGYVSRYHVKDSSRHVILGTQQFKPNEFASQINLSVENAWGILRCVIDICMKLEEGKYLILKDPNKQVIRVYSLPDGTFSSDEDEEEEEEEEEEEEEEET
UniProt P60228: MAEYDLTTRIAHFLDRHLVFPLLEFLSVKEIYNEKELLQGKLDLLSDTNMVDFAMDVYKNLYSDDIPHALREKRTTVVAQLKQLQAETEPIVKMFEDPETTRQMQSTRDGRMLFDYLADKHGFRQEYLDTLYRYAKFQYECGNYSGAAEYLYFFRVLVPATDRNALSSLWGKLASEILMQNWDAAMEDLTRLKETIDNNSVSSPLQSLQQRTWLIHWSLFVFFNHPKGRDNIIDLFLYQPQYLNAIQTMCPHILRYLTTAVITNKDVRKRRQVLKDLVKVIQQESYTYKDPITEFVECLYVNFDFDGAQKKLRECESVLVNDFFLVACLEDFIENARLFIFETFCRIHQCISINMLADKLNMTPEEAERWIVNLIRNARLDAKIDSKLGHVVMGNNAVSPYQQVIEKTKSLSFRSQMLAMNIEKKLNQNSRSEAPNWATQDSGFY
UniProt Q9Y262: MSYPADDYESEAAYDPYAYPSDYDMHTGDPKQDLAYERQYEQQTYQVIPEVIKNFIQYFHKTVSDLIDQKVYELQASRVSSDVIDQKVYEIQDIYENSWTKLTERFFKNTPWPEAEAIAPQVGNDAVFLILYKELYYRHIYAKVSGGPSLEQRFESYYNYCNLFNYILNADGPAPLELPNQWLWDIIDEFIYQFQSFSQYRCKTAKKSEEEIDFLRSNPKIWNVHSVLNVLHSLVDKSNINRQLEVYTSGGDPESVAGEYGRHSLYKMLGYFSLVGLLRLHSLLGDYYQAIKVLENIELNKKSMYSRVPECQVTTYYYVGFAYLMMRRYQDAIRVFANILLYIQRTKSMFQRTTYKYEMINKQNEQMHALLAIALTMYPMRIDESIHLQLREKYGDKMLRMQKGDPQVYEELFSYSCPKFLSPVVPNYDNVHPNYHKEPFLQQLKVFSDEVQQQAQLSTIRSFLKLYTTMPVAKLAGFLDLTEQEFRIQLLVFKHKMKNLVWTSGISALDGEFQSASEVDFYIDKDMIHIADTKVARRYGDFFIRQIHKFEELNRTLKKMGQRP
UniProt Q04637: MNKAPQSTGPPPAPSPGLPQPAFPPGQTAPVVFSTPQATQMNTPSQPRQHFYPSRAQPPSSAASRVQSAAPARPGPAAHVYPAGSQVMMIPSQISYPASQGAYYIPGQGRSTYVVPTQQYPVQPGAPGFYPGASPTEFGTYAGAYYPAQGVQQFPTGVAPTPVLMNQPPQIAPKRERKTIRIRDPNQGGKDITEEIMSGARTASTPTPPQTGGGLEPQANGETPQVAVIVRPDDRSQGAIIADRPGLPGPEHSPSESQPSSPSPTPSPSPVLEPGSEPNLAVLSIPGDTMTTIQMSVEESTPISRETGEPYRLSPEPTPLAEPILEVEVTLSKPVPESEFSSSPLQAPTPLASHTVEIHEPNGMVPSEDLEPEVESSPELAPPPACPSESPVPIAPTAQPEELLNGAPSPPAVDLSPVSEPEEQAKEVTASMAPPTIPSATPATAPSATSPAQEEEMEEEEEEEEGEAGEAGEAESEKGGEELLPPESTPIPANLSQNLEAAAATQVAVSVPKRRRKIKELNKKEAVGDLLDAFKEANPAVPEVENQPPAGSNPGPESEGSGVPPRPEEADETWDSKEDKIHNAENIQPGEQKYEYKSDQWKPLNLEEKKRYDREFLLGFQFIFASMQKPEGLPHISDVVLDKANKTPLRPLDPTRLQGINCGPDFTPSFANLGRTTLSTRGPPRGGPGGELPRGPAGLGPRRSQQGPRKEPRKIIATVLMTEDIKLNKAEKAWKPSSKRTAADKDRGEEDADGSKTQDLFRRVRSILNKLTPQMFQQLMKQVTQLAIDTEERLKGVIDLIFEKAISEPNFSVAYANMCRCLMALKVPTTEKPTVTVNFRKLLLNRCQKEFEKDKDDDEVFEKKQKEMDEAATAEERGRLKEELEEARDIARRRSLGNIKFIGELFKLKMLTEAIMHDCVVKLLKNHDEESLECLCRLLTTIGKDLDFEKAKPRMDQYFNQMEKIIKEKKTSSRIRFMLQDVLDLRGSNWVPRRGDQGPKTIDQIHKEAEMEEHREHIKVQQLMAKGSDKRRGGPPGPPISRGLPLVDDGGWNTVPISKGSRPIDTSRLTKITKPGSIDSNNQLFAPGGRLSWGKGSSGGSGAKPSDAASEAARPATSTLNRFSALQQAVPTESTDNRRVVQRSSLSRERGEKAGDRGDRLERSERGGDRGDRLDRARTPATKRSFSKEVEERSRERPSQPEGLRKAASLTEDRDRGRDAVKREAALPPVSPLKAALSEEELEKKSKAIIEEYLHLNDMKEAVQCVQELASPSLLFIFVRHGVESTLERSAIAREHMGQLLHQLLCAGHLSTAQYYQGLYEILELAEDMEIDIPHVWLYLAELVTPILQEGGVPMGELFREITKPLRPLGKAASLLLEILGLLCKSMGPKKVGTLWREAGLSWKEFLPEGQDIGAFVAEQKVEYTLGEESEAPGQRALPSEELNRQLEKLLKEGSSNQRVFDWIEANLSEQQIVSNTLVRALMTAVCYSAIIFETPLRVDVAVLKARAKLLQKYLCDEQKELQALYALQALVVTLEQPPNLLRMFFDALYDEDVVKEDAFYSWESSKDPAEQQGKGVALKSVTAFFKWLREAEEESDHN
UniProt P05198: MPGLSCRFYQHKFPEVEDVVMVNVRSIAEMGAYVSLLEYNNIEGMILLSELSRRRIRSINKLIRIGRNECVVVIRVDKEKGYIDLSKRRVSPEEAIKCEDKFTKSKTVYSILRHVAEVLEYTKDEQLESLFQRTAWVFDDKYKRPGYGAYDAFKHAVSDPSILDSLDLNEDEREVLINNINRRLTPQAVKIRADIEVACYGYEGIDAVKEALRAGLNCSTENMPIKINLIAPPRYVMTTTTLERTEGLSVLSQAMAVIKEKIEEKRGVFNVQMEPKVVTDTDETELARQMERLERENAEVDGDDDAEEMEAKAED

For assay [4], the target named is T2, v5-GIGYF1 (full-length human GIGYF1) (human) (UniProt O75420).
T2 sequence: T1 sequence with A502G, A503Y, A504F
The assay is described as follows: co-IP.

The target in assay [5] is endogenous eIF3D (human (endogenous in HEK293)) (UniProt O15371). The assay is described as follows: co-IP.
Assay [6] has as its target endogenous eIF3E (human (endogenous in HEK293)) (UniProt P60228). The assay is described as follows: co-IP.
Another assay concerns the target FLAG-eIF3L (UniProt Q9Y262). The assay is described as follows: proximity ligation.
Assay [7] deals with FLAG-eIF3D (UniProt O15371). The assay is described as follows: proximity ligation. This is another data set of the same source.
Assay [8] addresses endogenous eIF3D (human (endogenous in HEK293)) (UniProt O15371). The assay is described as follows: co-IP. The source holds these as a separate data set.

Positions count from the first letter of the chain named. Like-named read-outs stand apart in the source and are kept apart here. Results are given in words; binding and its absence hold for the method and conditions named. Binding seen in cells or lysates may run through a third protein. Some entries that bind do so weakly or less than the wild type. For some of these results: Where a sequence is shown, tags or fusion partners need not be part of it.

As to HA-eIF4G1 (from UniProt Q04637 1-1599), in the assay with FLAG-eIF3D [1], the binding entry is “binds”.

In the case of “endogenous eIF2α (from UniProt P05198 1-315)”, the binding result in the assay with FLAG-eIF3D [2] is recorded as “binds”.

For “endogenous eIF3D (from UniProt O15371 1-548)”, the binding result in [3] and in assay [4] was “binds” throughout.

“endogenous eIF3E (from UniProt P60228 1-445)”: the binding entry in assay [3] and in assay [4] was “binds” each time.

Regarding “endogenous eIF4G1 (from UniProt Q04637 1-1599)”, the binding entry in assay [5] and in assay [6] was “binds” in each case.

B1: v5-tagged GIGYF1 fragment D (541-839) (domain or fragment, UniProt O75420 541-839)
chain: PLLGNMDQERLKKQQELAAAALYQQLQHQQFLQLVSSRQLPQCALREKAALGDLTPPPPPPPQQQQQQLTAFLQQLQALKPPRGGDQNLLPTMSRSLSVPDSGRLWDVHTSASSQSGGEASLWDIPINSSTQGPILEQLQLQHKFQERREVELRAKREEEERKRREEKRRQQQQEEQKRRQEEEELFRRKHVRQQELLLKLLQQQQAVPVPPAPSSPPPLWAGLAKQGLSMKTLLELQLEGERQLHKQPPPREPARAQAPNHRVQLGGLGTAPLNQWVSEAGPLWGGPDKSGGGSSGLG
Take B1: the binding entry in the assay with FLAG-eIF3L and with FLAG-eIF3D [7] was “binds” in each case.

B2: v5-tagged GIGYF1 fragment E (829-1035) (domain or fragment, UniProt O75420 829-1035)
chain: DKSGGGSSGLGLWEDTPKSGGSLVRGLGLKNSRSSPSLSDSYSHLSGRPIRKKTEEEEKLLKLLQGIPRPQDGFTQWCEQMLHTLSATGSLDVPMAVAILKEVESPYDVHDYIRSCLGDTLEAKEFAKQFLERRAKQKASQQRQQQQEAWLSSASLQTAFQANHSTKLGPGEGSKAKRRALMLHSDPSILGYSLHGSSGEIESVDDY
Take B2: the binding entry with FLAG-eIF3L and in the assay with FLAG-eIF3D [7] was “binds” in each case.

B3: endogenous eIF4G2 (DAP5) (protein, UniProt P78344 1-907)
chain: MESAIAEGGASRFSASSGGGGSRGAPQHYPKTAGNSEFLGKTPGQNAQKWIPARSTRRDDNSAANNSANEKERHDAIFRKVRGILNKLTPEKFDKLCLELLNVGVESKLILKGVILLIVDKALEEPKYSSLYAQLCLRLAEDAPNFDGPAAEGQPGQKQSTTFRRLLISKLQDEFENRTRNVDVYDKRENPLLPEEEEQRAIAKIKMLGNIKFIGELGKLDLIHESILHKCIKTLLEKKKRVQLKDMGEDLECLCQIMRTVGPRLDHERAKSLMDQYFARMCSLMLSKELPARIRFLLQDTVELREHHWVPRKAFLDNGPKTINQIRQDAVKDLGVFIPAPMAQGMRSDFFLEGPFMPPRMKMDRDPLGGLADMFGQMPGSGIGTGPGVIQDRFSPTMGRHRSNQLFNGHGGHIMPPTQSQFGEMGGKFMKSQGLSQLYHNQSQGLLSQLQGQSKDMPPRFSKKGQLNADEISLRPAQSFLMNKNQVPKLQPQITMIPPSAQPPRTQTPPLGQTPQLGLKTNPPLIQEKPAKTSKKPPPSKEELLKLTETVVTEYLNSGNANEAVNGVREMRAPKHFLPEMLSKVIILSLDRSDEDKEKASSLISLLKQEGIATSDNFMQAFLNVLDQCPKLEVDIPLVKSYLAQFAARAIISELVSISELAQPLESGTHFPLFLLCLQQLAKLQDREWLTELFQQSKVNMQKMLPEIDQNKDRMLEILEGKGLSFLFPLLKLEKELLKQIKLDPSPQTIYKWIKDNISPKLHVDKGFVNILMTSFLQYISSEVNPPSDETDSSSAPSKEQLEQEKQLLLSFKPVMQKFLHDHVDLQVSALYALQVHCYNSNFPKGMLLRFFVHFYDMEIIEEEAFLAWKEDITQEFPGKGKALFQVNQWLTWLETAEEEESEEEAD
Regarding B3, the binding entry in assay [8] is listed as “binds”.

Values taken from doi:10.1101/2023.10.14.562322.
